Values of other authors as cited in patent publication US10392669B2, “Methods and systems for determination of an effective therapeutic regimen and drug discovery” (DNA-SEQ, INC., priority 2014, dated 2019).
At least one compound was matched to its structure with a doubt left.

System: catalytic cores of kinases
Settings: cancer patients, bracketed literature reference

SMILES: Cc1ccc(C(=O)Nc2ccc(CN3CCN(C)CC3)c(C(F)(F)F)c2)cc1C#Cc1cnc2cccnn12 [ponatinib]
- Activating Mutations (known activating mutations within the kinase catalytic core listed for the drug): T315I mutant ABL [22]
- Resistant Mutations (known resistance mutations within the kinase catalytic core listed for the drug): BCR-ABLIT315I/F359V
